Measurements from PubChem BioAssay AID977630 (Broad Institute, 2014).
The whole screen tested about 1,600 compounds, of which fewer than 10 were called active. Another 48% or so got no clear call; they are omitted.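 How the source made its calls: active means Normal-ribosome green reporter loss at least double humanized-ribosome red reporter loss, with overall culture growth inhibition under a set limit; inconclusive means no clear call, values can overlap the other calls; inactive means the rest.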 The list shows a part of the results, in another mix than the full data. Potency and affinity values are given separately.

test: E. coli growth inhibition, wild-type GFP versus H38 humanized RFP strain – H38 mutant RFP vs wild-type GFP, cherry-pick, dose response (AID 977630); settings: mixed culture, 24 h; at 50 µM (top of the series)

Activity change, negative = inhibition, inactive:
CCn1c(SCC(=O)Nc2ccc(OC)cc2)nc2nc3c(cc2c1=O)CCCC3 -12.5
O=C(CCCOc1ccccc1)NCCc1nc2ccccc2[nH]1 0.362
CC(C)(C)S(=O)(=O)Cc1nc(-c2ccc(Cl)c(Cl)c2)cs1 -9.14
Cc1onc(-c2ccccc2Cl)c1C(=O)OCC(=O)c1ccccc1 -2.63
CC(=O)Oc1ccc(N(c2ccccc2)S(=O)(=O)c2ccc(C)cc2)cc1 -7.09
CN(Cc1c(F)cccc1Cl)C(=O)c1ccc(NS(=O)(=O)c2ccc3[nH]c(=O)[nH]c3c2)cc1 1.93
CCCCOc1ccc(-c2nnn(CCC(=O)N3CCOCC3)n2)cc1 -6.25
CNC(=O)c1ccsc1NC(=O)c1ccc(S(=O)(=O)N2CCc3ccccc32)cc1 -17.7
CN(c1ccc(C(=O)NCc2cccs2)cc1)S(=O)(=O)c1ccccc1 -1.34
CCc1ccc2nc(SCC(=O)Nc3ccccc3N3CCOCC3)c(C#N)cc2c1 26.5
CCc1c(N=O)c(-c2ccccc2)n(O)[n+]1[O-] -11.5
O=C(Nc1ccc(Br)cc1)c1cccnc1N1CCCCC1 -2.35
O=c1c2ccccc2cnn1Cc1n[nH]c(=S)n1C1CC2CCC1C2 (centres undefined) -3.93
Cc1ccc2c(N)c(C(=O)c3ccccc3)sc2n1 -6.67
COc1ccccc1N1CCN(Cc2ccc(OC)c3ccccc23)CC1 -2.23
Cc1ccc(N2C(=S)NC3c4cc(Cl)ccc4OC2(C)C3C(=O)N(C)C)cc1 (centres undefined) -10.2
O=S(=O)(Cc1ccco1)Cc1nc(-c2ccc(Cl)cc2)cs1 -12
O=C(Nc1ccccc1N1CCOCC1)C1CCCCN1S(=O)(=O)c1ccccc1 (centres undefined) -15.6
COc1ccccc1CC(=O)NCCc1c[nH]c2ccccc12 -5.01
CSc1ccccc1C(=O)NCCc1ccc(S(=O)(=O)N2CCCCC2)cc1 -4.84
COC(=O)c1ccsc1NC(=O)c1cccc(OC)c1 -8.8
Cc1ccc(C(=O)NCC(=O)OCC(=O)Nc2cccc(S(=O)(=O)N3CCCC3)c2)cc1C -4.28
Cc1cccc(NC(=O)c2nc(S(=O)(=O)Cc3ccccc3)ncc2Cl)c1 -4.84
CN(C)S(=O)(=O)c1cccc(C(=O)Nc2ccc(C(=O)Nc3cccc(S(N)(=O)=O)c3)cc2)c1 -13.6
Cc1ncoc1C(=O)NCCC(c1ccccc1)c1ccccc1 -18.2
CCOc1ccc2nc(N(CCN(C)C)C(=O)c3ccc4ccccc4c3)sc2c1 -11.3
COc1cc[n+]([O-])cc1[N+](=O)[O-] 5.53
COc1ccc(CN(C)C(=O)c2cc(-c3ccc(OC)c(OC)c3)nc3ccccc23)c(OC)c1 -3.82
Cc1cc(C)c(NC(=O)C(C)c2cccc(C(=O)c3ccccc3)c2)c(C)c1 (centres undefined) -14.8
COc1ccc(-c2nc(C3CCCCC3)no2)cc1OC -8.9
COc1cc(CC(=O)Nc2nc(C)cs2)cc(OC)c1OC -5.62
CC(=O)Cc1cc(O)c2ccccc2c1OC(=O)c1ccc(Br)cc1 4.43
O=C(COC(=O)CNC(=O)c1ccc(F)cc1)Nc1cccc(S(=O)(=O)N2CCCC2)c1 -9.73
Cc1ccc(-c2c[n+](CC(=O)Nc3ccccc3)c3n2CCC3)cc1 -1.85

Molecules above containing bromine:
Activity change, negative = inhibition, inactive:
O=C(Nc1ccc(Br)cc1)c1cccnc1N1CCCCC1 -2.35
CC(=O)Cc1cc(O)c2ccccc2c1OC(=O)c1ccc(Br)cc1 4.43
